In PMC12510807:
Changes are numbered by the printed parent chain. In names and notes the source's numbering stands. Results are given in words; binding and its absence hold for the method and conditions named. In cells and extracts the contact can be indirect. Some results given as binding are weak or reduced against the parent protein; the word gives no strength.

Target: T1, ferroptosis suppressor protein 1 (FSP1) (UniProt Q9BRQ8)
T1 sequence: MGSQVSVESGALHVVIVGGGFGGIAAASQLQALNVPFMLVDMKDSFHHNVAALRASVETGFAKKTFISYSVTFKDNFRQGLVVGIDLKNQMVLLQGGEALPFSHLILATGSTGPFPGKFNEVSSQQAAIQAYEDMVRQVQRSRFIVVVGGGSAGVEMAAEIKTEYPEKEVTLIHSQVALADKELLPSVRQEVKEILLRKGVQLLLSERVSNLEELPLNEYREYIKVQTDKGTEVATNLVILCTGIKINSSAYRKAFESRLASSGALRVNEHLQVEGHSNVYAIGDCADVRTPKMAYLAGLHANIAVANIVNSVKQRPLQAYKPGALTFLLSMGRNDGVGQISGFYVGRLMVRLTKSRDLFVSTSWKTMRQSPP
Test: co-IP; FSP1 with wild-type or Y41A mutant NMT1; cells not given

B1: wild-type NMT1 (enzyme, UniProt P30419 1-496)
chain: MADESETAVKPPAPPLPQMMEGNGNGHEHCSDCENEEDNSYNRGGLSPANDTGAKKKKKKQKKKKEKGSETDSAQDQPVKMNSLPAERIQEIQKAIELFSVGQGPAKTMEEASKRSYQFWDTQPVPKLGEVVNTHGPVEPDKDNIRQEPYTLPQGFTWDALDLGDRGVLKELYTLLNENYVEDDDNMFRFDYSPEFLLWALRPPGWLPQWHCGVRVVSSRKLVGFISAIPANIHIYDTEKKMVEINFLCVHKKLRSKRVAPVLIREITRRVHLEGIFQAVYTAGVVLPKPVGTCRYWHRSLNPRKLIEVKFSHLSRNMTMQRTMKLYRLPETPKTAGLRPMETKDIPVVHQLLTRYLKQFHLTPVMSQEEVEHWFYPQENIIDTFVVENANGEVTDFLSFYTLPSTIMNHPTHKSLKAAYSFYNVHTQTPLLDLMSDALVLAKMKGFDVFNALDLMENKTFLEKLKFGIGDGNLQYYLYNWKCPSMGAEKVGLVLQ
In the case of B1, the binding is reported as “binds”.

B2: Y41A mutant NMT1 (enzyme, UniProt P30419 1-496)
chain: B1 chain with Y41A
With B2 the binding was “binds”.
